No constants are given. Whether binding was seen depends on the method and setting. Some results given as binding are weak or reduced against the parent protein; the word gives no strength.

Amino acid sequences for entries named in this document (tags omitted).
UniProt P61073: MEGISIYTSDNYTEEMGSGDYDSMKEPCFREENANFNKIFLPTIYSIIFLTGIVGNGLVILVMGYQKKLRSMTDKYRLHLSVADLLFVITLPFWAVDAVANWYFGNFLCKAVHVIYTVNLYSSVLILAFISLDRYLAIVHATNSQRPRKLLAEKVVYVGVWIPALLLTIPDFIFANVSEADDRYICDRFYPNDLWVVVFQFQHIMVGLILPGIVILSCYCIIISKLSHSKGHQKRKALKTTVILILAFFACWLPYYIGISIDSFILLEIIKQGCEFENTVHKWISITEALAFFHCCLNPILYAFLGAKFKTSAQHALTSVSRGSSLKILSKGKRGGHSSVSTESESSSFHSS

The target in this test is human CXCR4 receptor (human, UniProt P61073 1-352). In words: flow cytometry competition on CXCR4 transfected NIH3T3 cells; competitor: biotinylated murine 515H7. An excerpt: In a first series of experiments, we constructed and analysed the anti-CXCR4 binding activities of the three first humanized variants. […] Therefore, VH1 was combined with the three different variants of VL (FIG. 23D-F).
(In general: In flow cytometry, cells or beads pass a laser one at a time.)

B1: humanized antibody Hz515H7 VH2/c515H7 VL (antibody, human IgG1, V domains shown)
VH: EVNLVESGGGLVQPGRSLRLSCTASGFTFTDNYMSWVRQAPGKGLEWLGFIRNKANGYTTDYAASVRGRFTISRDNSKSILYLQMNALRTEDTAVYYCARDVGSNYFDYWGQGTLVTVSS
VL: DIVMSQSPSSLAVSAGEKVTMSCKSSQSLFNSRTRKNYLAWYQQKPGQSPKLLIYWASARDSGVPARFTGSGSETYFTLTISRVQAEDLAVYYCMQSFNLRTFGQGTKVEIKR
B1: the binding result is on record as “binds”.

The values are drawn from patent US20130031647A1 (PIERRE FABRE MEDICAMENT, published 2013).
